The assay concerns the target T1, mouse GALNTL5 protein tagged with green fluorescent protein (GFP) (mouse) (UniProt Q9D4M9).
T1 sequence: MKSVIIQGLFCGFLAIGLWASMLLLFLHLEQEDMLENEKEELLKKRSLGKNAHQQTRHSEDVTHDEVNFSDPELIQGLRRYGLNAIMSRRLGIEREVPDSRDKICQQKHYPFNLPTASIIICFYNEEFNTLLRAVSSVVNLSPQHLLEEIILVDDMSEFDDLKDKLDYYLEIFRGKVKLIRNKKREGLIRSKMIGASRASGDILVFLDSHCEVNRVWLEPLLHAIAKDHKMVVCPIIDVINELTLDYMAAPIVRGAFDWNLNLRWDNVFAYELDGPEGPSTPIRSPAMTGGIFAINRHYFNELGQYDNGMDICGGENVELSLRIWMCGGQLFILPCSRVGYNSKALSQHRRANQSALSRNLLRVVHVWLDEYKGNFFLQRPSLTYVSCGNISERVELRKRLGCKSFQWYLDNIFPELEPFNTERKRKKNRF
The experiment in a line: affinity purification with mass spectrometry; lysates of GALNTL5-GFP/GC-2spd(ts) cells cultured 2 days with cumate; IP with anti-GFP mAb-Magnetic Beads; bands around 75 kDa cut from the SDS-PAGE gel, trypsin digest, MS.

Sequences of proteins named here, by UniProt entry; tags and fusion partners are left off. Residues count along the entry.
UniProt P20029, residues 20-655: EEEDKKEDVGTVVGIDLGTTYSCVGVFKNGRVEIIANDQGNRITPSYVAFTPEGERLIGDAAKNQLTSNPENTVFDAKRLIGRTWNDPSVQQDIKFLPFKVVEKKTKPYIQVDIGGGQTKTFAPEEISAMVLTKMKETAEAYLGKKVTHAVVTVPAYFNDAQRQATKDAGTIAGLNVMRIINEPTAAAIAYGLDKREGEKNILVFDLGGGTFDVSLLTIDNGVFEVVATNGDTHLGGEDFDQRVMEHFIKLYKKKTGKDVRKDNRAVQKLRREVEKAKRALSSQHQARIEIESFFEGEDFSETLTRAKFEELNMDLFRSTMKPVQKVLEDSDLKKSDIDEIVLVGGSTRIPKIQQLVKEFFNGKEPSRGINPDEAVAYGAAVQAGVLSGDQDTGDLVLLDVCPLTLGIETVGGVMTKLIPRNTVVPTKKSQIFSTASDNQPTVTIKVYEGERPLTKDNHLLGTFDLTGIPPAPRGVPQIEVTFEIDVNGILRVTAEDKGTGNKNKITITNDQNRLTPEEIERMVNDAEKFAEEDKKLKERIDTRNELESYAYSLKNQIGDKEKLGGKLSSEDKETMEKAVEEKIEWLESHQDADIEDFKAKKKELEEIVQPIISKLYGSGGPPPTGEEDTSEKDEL

These are yes or no findings as the source states them, for the method shown. In cells and extracts the contact can be indirect. These calls come from enrichment with a bait or labelling near it, and not all partners need be listed. Tags and fused reporters may be left off the sequences shown.

Our source for the binding values is article PMC11655647.

On to “BiP (GRP78) (mouse, endogenous) (from UniProt P20029 20-655)”, for which the binding result is on record as “binds”.

B1: calnexin (mouse, endogenous) (protein, UniProt P35564 21-591)
chain: HDGHDDDAIDIEDDLDDVIEEVEDSKSKSDASTPPSPKVTYKAPVPTGEVYFADSFDRGSLSGWILSKAKKDDTDDEIAKYDGKWEVDEMKETKLPGDKGLVLMSRAKHHAISAKLNKPFLFDTKPLIVQYEVNFQNGIECGGAYVKLLSKTAELSLDQFHDKTPYTIMFGPDKCGEDYKLHFIFRHKNPKTGVYEEKHAKRPDADLKTYFTDKKTHLYTLILNPDNSFEILVDQSVVNSGNLLNDMTPPVNPSREIEDPEDRKPEDWDERPKIADPDAVKPDDWDEDAPSKIPDEEATKPEGWLDDEPEYIPDPDAEKPEDWDEDMDGEWEAPQIANPKCESAPGCGVWQRPMIDNPNYKGKWKPPMIDNPNYQGIWKPRKIPNPDFFEDLEPFKMTPFSAIGLELWSMTSDIFFDNFIISGDRRVVDDWANDGWGLKKAADGAAEPGVVLQMLEAAEERPWLWVVYILTVALPVFLVILFCCSGKKQSNAMEYKKTDAPQPDVKDEEGKEEEKNKRDEEEEEEKLEEKQKSDAEEDGVTGSQDEEDSKPKAEEDEILNRSPRNRKPRRE
In the case of B1, the binding result is reported as “binds”.
